Test results from paper PMC4578135.
No constants are given. Whether binding was seen depends on the method and setting. Binding seen in cells or lysates may run through a third protein. Some results given as binding are weak or reduced against the parent protein; the word gives no strength.

Target: HTLV-1 Tax protein (HTLV-1) (UniProt P03409)
Assay: co-IP + pull-down; immunoprecipitation and Ni-NTA pulldown assays; cells, tags and which protein was held not stated

| Binder | binding |
| --- | --- |
| endogenous Cep63 (protein, UniProt Q96MT8 1-703) MEALLEGIQNRGHGGGFLTSCEAELQELMKQIDIMVAHKKSEWEGRTHALETCLKIREQELKSLRSQLDVTHKEVGMLHQQVEEHEKIKQEMTMEYKQELKKLHEELCILKRSYEKLQKKQMREFRGNTKNHREDRSEIERLTAKIEEFRQKSLDWEKQRLIYQQQVSSLEAQRKALAEQSEIIQAQLVNRKQKLESVELSSQSEIQHLSSKLERANDTICANELEIERLTMRVNDLVGTSMTVLQEQQQKEEKLRESEKLLEALQEEKRELKAALQSQENLIHEARIQKEKLQEKVKATNTQHAVEAIRPREESLAEKKYTSQGQGDLDSVLSQLNFTHTSEDLLQAEVTCLEGSLESVSATCKQLSQELMEKYEELKRMEAHNNEYKAEIKKLKEQILQGEQSYSSALEGMKMEISHLTQELHQRDITIASTKGSSSDMEKRLRAEMQKAEDKAVEHKEILDQLESLKLENRHLSEMVMKLELGLHEAKEISLADLQENYIEALNKLVSENQQLQKDLMNTKSQLEISTQMCKKQNDRIFKPTHSRTTEFKNTEFKPTHGQHRHDGIKTEHYKTDLHSPRGQASDSINPMSRVLSPLSPQISPCSSTRSLTSYSLCKTHSLPSALDTNEANFSDTMSESMNDQEEFISSCSLPVSPLGSIATRFLEEEELRSHHILERLDAHIEELKRESEKTVRQFTALK | binds |
| ectopically expressed Cep63 (protein, UniProt Q96MT8 1-703) MEALLEGIQNRGHGGGFLTSCEAELQELMKQIDIMVAHKKSEWEGRTHALETCLKIREQELKSLRSQLDVTHKEVGMLHQQVEEHEKIKQEMTMEYKQELKKLHEELCILKRSYEKLQKKQMREFRGNTKNHREDRSEIERLTAKIEEFRQKSLDWEKQRLIYQQQVSSLEAQRKALAEQSEIIQAQLVNRKQKLESVELSSQSEIQHLSSKLERANDTICANELEIERLTMRVNDLVGTSMTVLQEQQQKEEKLRESEKLLEALQEEKRELKAALQSQENLIHEARIQKEKLQEKVKATNTQHAVEAIRPREESLAEKKYTSQGQGDLDSVLSQLNFTHTSEDLLQAEVTCLEGSLESVSATCKQLSQELMEKYEELKRMEAHNNEYKAEIKKLKEQILQGEQSYSSALEGMKMEISHLTQELHQRDITIASTKGSSSDMEKRLRAEMQKAEDKAVEHKEILDQLESLKLENRHLSEMVMKLELGLHEAKEISLADLQENYIEALNKLVSENQQLQKDLMNTKSQLEISTQMCKKQNDRIFKPTHSRTTEFKNTEFKPTHGQHRHDGIKTEHYKTDLHSPRGQASDSINPMSRVLSPLSPQISPCSSTRSLTSYSLCKTHSLPSALDTNEANFSDTMSESMNDQEEFISSCSLPVSPLGSIATRFLEEEELRSHHILERLDAHIEELKRESEKTVRQFTALK | binds |
